Our source for the EC50 values is ChEMBL document CHEMBL2163335, “Structure-functional selectivity relationship studies of β-arrestin-biased dopamine D₂ receptor agonists” (J Med Chem, 2012).

Amino acid sequences for entries named in this document (tags omitted).
UniProt P14416, whole entry: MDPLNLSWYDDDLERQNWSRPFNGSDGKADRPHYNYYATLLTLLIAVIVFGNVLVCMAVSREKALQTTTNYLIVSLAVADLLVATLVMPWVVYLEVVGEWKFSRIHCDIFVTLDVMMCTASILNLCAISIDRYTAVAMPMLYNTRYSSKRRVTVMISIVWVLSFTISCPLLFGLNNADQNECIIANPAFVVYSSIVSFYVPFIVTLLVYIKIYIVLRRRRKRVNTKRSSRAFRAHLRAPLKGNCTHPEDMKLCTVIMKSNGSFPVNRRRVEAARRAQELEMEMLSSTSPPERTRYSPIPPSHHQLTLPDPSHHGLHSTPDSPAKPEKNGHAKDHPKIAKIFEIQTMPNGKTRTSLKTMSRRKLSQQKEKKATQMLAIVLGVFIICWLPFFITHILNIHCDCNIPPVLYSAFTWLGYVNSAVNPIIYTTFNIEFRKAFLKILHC

This experiment has as its target D(2) dopamine receptor (Homo sapiens, UniProt P14416). Briefly: Agonist activity at human D2L receptor expressed in HEK293T cells coexpressing Gi subunit assessed as inhibition of isoproterenol-stimulated cAMP production by luminescence assay. The format is functional, cell-based. The conditions noted are these: hek-293t.

As to `O=c1ccc2ccc(OCCCCN3CCCN(c4cccc(Cl)c4Cl)CC3)cc2[nH]1`, the EC50 entry is reported as “Not Active”.
